This assay deals with LAP-tagged FAM53C (GFP- and S-tagged) (UniProt Q9NYF3). The experiment in a line: affinity purification with mass spectrometry; tandem affinity purification of LAP-tagged FAM53C from HEK-293T lysate (GFP-coupled beads, PreScission cleavage, S-protein agarose; washes with 200 mM KCl, 0.05% NP40), in-gel digestion, LC-MS/MS.

By UniProt entry, the sequences of proteins in these tests, tags left out.
UniProt Q9NYF3: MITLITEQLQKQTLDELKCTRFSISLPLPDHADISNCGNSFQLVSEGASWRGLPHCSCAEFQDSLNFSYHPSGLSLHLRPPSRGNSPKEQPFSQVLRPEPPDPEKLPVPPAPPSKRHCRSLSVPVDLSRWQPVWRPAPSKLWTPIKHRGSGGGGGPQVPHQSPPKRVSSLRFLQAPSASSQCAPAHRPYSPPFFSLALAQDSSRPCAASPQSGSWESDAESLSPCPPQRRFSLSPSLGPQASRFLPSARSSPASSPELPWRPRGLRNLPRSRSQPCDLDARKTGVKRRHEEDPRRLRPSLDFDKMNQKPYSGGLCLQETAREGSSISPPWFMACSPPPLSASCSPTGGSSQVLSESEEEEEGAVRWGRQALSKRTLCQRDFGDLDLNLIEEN

These are yes or no findings as the source states them, for the method shown. In cells and extracts the contact can be indirect. Here binding means that the protein was enriched with, or labelled near, the bait; the list need not be complete.

B1: DCAF7 (protein, UniProt P61962 1-342)
chain: MSLHGKRKEIYKYEAPWTVYAMNWSVRPDKRFRLALGSFVEEYNNKVQLVGLDEESSEFICRNTFDHPYPTTKLMWIPDTKGVYPDLLATSGDYLRVWRVGETETRLECLLNNNKNSDFCAPLTSFDWNEVDPYLLGTSSIDTTCTIWGLETGQVLGRVNLVSGHVKTQLIAHDKEVYDIAFSRAGGGRDMFASVGADGSVRMFDLRHLEHSTIIYEDPQHHPLLRLCWNKQDPNYLATMAMDGMEVVILDVRVPCTPVARLNNHRACVNGIAWAPHSSCHICTAADDHQALIWDIQQMPRAIEDPILAYTAEGEINNVQWASTQPDWIAICYNNCLEILRV
In the case of B1, the binding entry is “binds”.

The values above are taken from paper PMC13132546.
